Assay results taken from patent US8309552B2, “Immunomodulating heterocyclic compounds” (Medigene AG, priority 2003, dated 2012).

By UniProt entry, the sequences of proteins in these tests, tags left out. Residues count along the entry.
UniProt P33681, 35-242 limits assumed: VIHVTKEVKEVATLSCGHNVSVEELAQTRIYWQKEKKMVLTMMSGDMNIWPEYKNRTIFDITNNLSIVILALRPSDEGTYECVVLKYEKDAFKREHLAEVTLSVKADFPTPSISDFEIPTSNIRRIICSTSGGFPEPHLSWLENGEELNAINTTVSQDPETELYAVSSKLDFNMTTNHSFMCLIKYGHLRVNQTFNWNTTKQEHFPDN

Key:
CD80-CD28 interaction = CD80-CD28 interaction (Homo sapiens, UniProt P33681); assay: Homogenous Time Resolved Fluorescence (HTRF) assay, cell free; conditions: read-out: Activity (EC50 in the HTRF assay), 4 hours at room temperature
Protocol: Homogenous Time Resolved Fluorescence Assay
The examples described above were tested in a cell free Homogenous Time Resolved Fluorescence (HTRF) assay to determine their activity as inhibitors of the CD80-CD28 interaction.
In the assay, europium and allophycocyanin (APC) are associated with CD28 and CD80 indirectly (through antibody linkers) to form a complex, which brings the europium and APC into close proximity to generate a signal. The complex comprises the following six proteins: fluorescent label 1, linker antibody 1, CD28 fusion protein, CD80 fusion protein, linker antibody 2, and fluorescent label 2. The table below describes these reagents in greater detail.
On formation of the complex, europium and APC are brought into proximity and a signal is generated.
Non-specific interaction was measured by substituting a mouse Fab fragment (C215) for the CD80 mouse Fab fragment fusion protein (1.9 μg/ml). The assay was carried out in black 384 well plates in a final volume of 30 μl. Assay buffer: 50 mM Tris-HCl, 150 mM NaCl pH7.8, containing 0.1% BSA (w/v) added just prior to use.
Compounds were added to the above reagents in a concentration series ranging between 100 μM-1.7 nM. The reaction was incubated for 4 hours at room temperature. Dual measurements were made using a Wallac Victor 1420 Multilabel Counter. First measurement: excitation 340 nm, emission 665 nm, delay 50 μs, window time 200 μs. second measurement: excitation 340 nm, emission 615 nm, delay 50 μs, window time 200 μs. Counts were automatically corrected for fluorescence crossover, quenching and background. The EC50 activities of compounds tested are recorded as: EC50:*=>10 μM,**=1-10 μM,***=<1 μM.

[1] = test system: production of Interleukin-2 (IL-2) by Human Jurkat T Cells; assay: Inhibition of production of interleukin-2 (IL-2) by human Jurkat T cells (Raji/Jurkat co-culture, anti-CD3, IL-2 ELISA); conditions: Compound Concentration 10 μM
Protocol: • Collins A V et al. (2002) Immunity 17, 201-210 “The interaction properties of costimulatory molecules revisited” Inhibition of Production of Interleukin-2 (IL-2) by Human Jurkat T Cells. Method
Human Raji cells were dispensed at a concentration of 2×10^5 cells per well in RPMI-1640 medium supplemented with 10% fetal calf serum, 1% penicillin/streptomycin, 1% glutamine (RPMI medium) in a 96-well round bottom microtitre plate. Compounds under investigation (dissolved in 100% DMSO) were diluted to eight-fold the desired final concentration in RPMI medium and added to the required final concentration for a total volume of 200 μl per well. After 20 minutes incubation at 37° C., Jurkat T cells were added at a concentration of 2×10^5 cells per well. Monoclonal antibody to CD3 (UCHT1, R&D Systems) was added to the cultures at a final concentration of 1 μg per ml, and where indicated, monoclonal antibody to CD28 (CD28.2, BD-Pharmingen) was also added at a concentration of 2.5 μg per ml. Cells were cultured at 37° C. for 5 hours, after which the plates were centrifuged and the supernatants harvested for IL-2 ELISA assay using the IL-2 Eli-pair kit (DIACLONE Research, Besancon, France) according to the manufacturers instructions.

[2] = cell free HTRF assay, concentration series 100 μM-1.7 nM
[3] = cell-free HTRF, compound concentration series 100 μM-1.7 nM

SMILES: CCCCN(CCCC)CCCNC(=O)c1ccc(-n2[nH]c3c(nnc4c(F)cccc43)c2=O)cc1
- EC50 (CD80-CD28 interaction; [2]): < 1 µM

SMILES: O=C(NCCCN1CCCC1=O)c1ccc(-n2[nH]c3c(nnc4ccccc43)c2=O)cc1
- EC50 (CD80-CD28 interaction; [3]): 1 to 10 µM

SMILES: O=C(NCCCNC1CCCCC1)c1ccc(-n2[nH]c3c(nnc4ccccc43)c2=O)cc1 [Example 4, N-[(cyclohexylamino)propyl]-4-(3-oxo-1,3-dihydro-2H-pyrazolo[4,3-c]cinnolin-2-yl)benzamide]
- EC50 (CD80-CD28 interaction; [3]): < 1 µM

SMILES: CC(C)CCCC(C)NC(=O)Nc1ccc(-n2[nH]c3c(nnc4ccccc43)c2=O)cc1 (stereo not shown)
- EC50 (CD80-CD28 interaction; [2]): > 10 µM

SMILES: CN(C)CCCNC(=O)c1ccc(-n2[nH]c3c(nnc4ccc(F)cc43)c2=O)cc1
- EC50 (CD80-CD28 interaction; [2]): < 1 µM
- Percentage Inhibition (relative to DMSO = 0%) [1]: 48.5%

SMILES: O=C(Nc1cccc(F)c1)c1ccc(-n2[nH]c3c(nnc4ccccc43)c2=O)cc1
- EC50 (CD80-CD28 interaction; [3]): > 10 µM

SMILES: O=C(NCc1ccccc1C(F)(F)F)c1ccc(-n2[nH]c3c(nnc4ccccc43)c2=O)cc1
- EC50 (CD80-CD28 interaction; [2]): > 10 µM

SMILES: CC(C)NC(=O)Nc1ccc(-n2[nH]c3c(nnc4ccccc43)c2=O)cc1
- EC50 (CD80-CD28 interaction; [3]): 1 to 10 µM

SMILES: CC(C)(C)OC(=O)NCCNC(=O)Nc1ccc(-n2[nH]c3c(nnc4ccccc43)c2=O)cc1
- EC50 (CD80-CD28 interaction; [3]): 1 to 10 µM

Read-outs that look alike come from different tables or passages of the source. Structures were worked out from names or drawings and are uncertain.
